No constants are given. Whether binding was seen depends on the method and setting. Binding seen in cells or lysates may run through a third protein. Some binding calls cover weakened binding; strength is not graded here.
T1: CD151 (human (endogenous in HT29)) (UniProt P48509)
T1 sequence: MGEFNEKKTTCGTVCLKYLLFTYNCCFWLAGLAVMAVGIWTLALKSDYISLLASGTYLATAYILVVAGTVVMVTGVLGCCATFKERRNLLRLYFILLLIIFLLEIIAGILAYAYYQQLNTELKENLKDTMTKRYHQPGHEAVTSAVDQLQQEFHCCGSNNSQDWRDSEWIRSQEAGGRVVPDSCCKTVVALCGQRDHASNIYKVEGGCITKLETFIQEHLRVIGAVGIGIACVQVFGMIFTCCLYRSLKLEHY

By UniProt entry, the sequences of proteins in these tests, tags left out. Residues count along the entry.
UniProt P40199, residues 35-320: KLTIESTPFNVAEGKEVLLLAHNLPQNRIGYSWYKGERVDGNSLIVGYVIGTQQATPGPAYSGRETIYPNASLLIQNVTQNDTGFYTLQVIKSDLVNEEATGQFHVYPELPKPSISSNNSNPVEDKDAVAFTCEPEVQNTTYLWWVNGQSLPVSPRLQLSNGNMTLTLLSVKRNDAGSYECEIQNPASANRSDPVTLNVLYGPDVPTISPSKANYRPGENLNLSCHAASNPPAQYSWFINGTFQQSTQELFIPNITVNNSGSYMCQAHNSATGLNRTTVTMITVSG
UniProt P01137, residues 279-390: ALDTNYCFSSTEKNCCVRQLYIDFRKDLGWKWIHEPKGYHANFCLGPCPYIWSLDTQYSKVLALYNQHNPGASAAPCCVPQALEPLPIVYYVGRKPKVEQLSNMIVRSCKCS

B1: leucine-rich repeat-containing G-protein coupled receptor 5 (LGR5) (receptor, UniProt O75473 22-907)
chain: GSSPRSGVLLRGCPTHCHCEPDGRMLLRVDCSDLGLSELPSNLSVFTSYLDLSMNNISQLLPNPLPSLRFLEELRLAGNALTYIPKGAFTGLYSLKVLMLQNNQLRHVPTEALQNLRSLQSLRLDANHISYVPPSCFSGLHSLRHLWLDDNALTEIPVQAFRSLSALQAMTLALNKIHHIPDYAFGNLSSLVVLHLHNNRIHSLGKKCFDGLHSLETLDLNYNNLDEFPTAIRTLSNLKELGFHSNNIRSIPEKAFVGNPSLITIHFYDNPIQFVGRSAFQHLPELRTLTLNGASQITEFPDLTGTANLESLTLTGAQISSLPQTVCNQLPNLQVLDLSYNLLEDLPSFSVCQKLQKIDLRHNEIYEIKVDTFQQLLSLRSLNLAWNKIAIIHPNAFSTLPSLIKLDLSSNLLSSFPITGLHGLTHLKLTGNHALQSLISSENFPELKVIEMPYAYQCCAFGVCENAYKISNQWNKGDNSSMDDLHKKDAGMFQAQDERDLEDFLLDFEEDLKALHSVQCSPSPGPFKPCEHLLDGWLIRIGVWTIAVLALTCNALVTSTVFRSPLYISPIKLLIGVIAAVNMLTGVSSAVLAGVDAFTFGSFARHGAWWENGVGCHVIGFLSIFASESSVFLLTLAALERGFSVKYSAKFETKAPFSSLKVIILLCALLALTMAAVPLLGGSKYGASPLCLPLPFGEPSTMGYMVALILLNSLCFLMMTIAYTKLYCNLDKGDLENIWDCSMVKHIALLLFTNCILNCPVAFLSFSSLINLTFISPEVIKFILLVVVPLPACLNPLLYILFNPHFKEDLVSLRKQTYVWTRSKHPSLMSINSDDVEKQSCDSTQALVTFTSSSITYDLPPSSVPSPAYPVTESCHLSSVAFVPCL

Target: T1, CD151 (human (endogenous in HT29))
Assay: co-IP; CoIP of CD151 from HT29 cell lysate with anti-CD151 antibody (Figure 6C); how the partners were detected is not told

Molecule | binding
carcinoembryonic antigen-related cell adhesion molecule 6 (CEACAM6) (from UniProt P40199 35-320) | binds
transforming growth factor β1 (TGFβ1) (from UniProt P01137 279-390) | binds
B1 | binds

Source: paper PMC7975690
